Measured values reported in publication PMC10225365.
Results are given in words; binding and its absence hold for the method and conditions named. Some entries that bind do so weakly or less than the wild type.

T1: Ovalbumin (albumin from chicken egg white) dialyzed against PBS (control OVA) (chicken (Gallus gallus))
T1 chain: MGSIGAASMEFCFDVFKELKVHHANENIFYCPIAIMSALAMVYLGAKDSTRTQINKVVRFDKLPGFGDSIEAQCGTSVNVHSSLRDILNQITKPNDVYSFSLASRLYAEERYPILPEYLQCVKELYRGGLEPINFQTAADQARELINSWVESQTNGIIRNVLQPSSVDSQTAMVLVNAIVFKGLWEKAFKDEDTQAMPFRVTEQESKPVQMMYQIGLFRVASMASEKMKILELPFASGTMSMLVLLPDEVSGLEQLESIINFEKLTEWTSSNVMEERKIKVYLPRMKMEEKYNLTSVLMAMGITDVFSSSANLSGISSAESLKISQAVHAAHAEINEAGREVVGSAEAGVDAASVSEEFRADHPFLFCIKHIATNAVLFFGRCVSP

T2: Ovalbumin dialyzed against LAP (LAP-modified OVA) (chicken (Gallus gallus))
T2 chain: T1 chain

B1: Ovalbumin (albumin from chicken egg white) dialyzed against PBS (control OVA) (protein)
chain: T1 chain
B2: Ovalbumin dialyzed against LAP (LAP-modified OVA) (protein)
chain: T1 chain
modifications: here or on the partner: oxidation at M9, M36, M197, M274 (by UPLC-MS/MS after tryptic digestion); oxidation at M9, M36, M197, M274 (by UPLC-MS/MS after tryptic digestion)

Experiments:
[1] = target: T1, Ovalbumin (albumin from chicken egg …); experiment: SEC; FPLC, Superdex 200 10/300 GL, isocratic elution with 50 mM Tris pH 7.4, 100 mM NaCl, 8 °C, absorbance at 280 nm; dialyzed OVA samples; monomeric and dimeric fractions assigned by column volume; both purified; details: remark: other sources report otherwise
[2] = target: T2, Ovalbumin dialyzed against LAP …; experiment: as above; details: remark: other sources report otherwise

Row | Binder | binding [1] | binding [2]
1 | B1 | binds | –
2 | B2 | – | binds
